PubChem BioAssay AID1159578, Peter MacCallum Cancer Centre – 2015
Purpose: 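Knock-downs that alter how fast lymphatic endothelial cells migrate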 (primary screen). System: human lymphatic endothelial cells. Reagent: siRNA pool against human genes, 40 nM. Duration: 48 h after transfection. Read-out: 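High-content imaging of dye-stained cells in a scratch assay measures filled wound area and nuclei per well; duplicate means given as ratio to mock and robust z-score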. Direction: migration robust z-score: higher = faster migration into the scratch; nuclei per well: higher = more cells in the well. Hit rule: 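Pools averaging fewer than 3300 nuclei are never called; remaining pools count as changed when migration robust z lies outside -2 to 2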. Meaning of the calls: active = migration changed; inactive = no migration change, or too few cells.
In all, the deposit lists about 18,000 reagents; this is an unselected part. About 1,030 of them (5.7%) were called active. 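Inactive calls also include pools with fewer than 3300 nuclei, whose migration was not assessed.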 Raw values vary from plate to plate and are shown uncorrected. Not all columns of the deposit are shown.

Target gene	migration robust z-score	nuclei per well, duplicate mean	call
C10orf53 (chromosome 10 open reading frame 53)	-0.88	5442	inactive
LPL (lipoprotein lipase)	-2.23	5530	active
PRLHR (prolactin releasing hormone receptor)	-0.13	5068	inactive
UPF1 (UPF1 RNA helicase and ATPase)	0.15	4110	inactive
MTMR11 (myotubularin related protein 11)	0.5	6538	inactive
LEPROTL1 (leptin receptor overlapping transcript like 1)	-1.67	5528	inactive
C16orf54 (chromosome 16 open reading frame 54)	-1.82	3170	inactive
AKAP8L (A-kinase anchoring protein 8 like)	0.9	5694	inactive
PCDHAC1 (protocadherin alpha subfamily C, 1)	-0.67	5733	inactive
AP1AR	0.28	5326	inactive
RHOQ (ras homolog family member Q)	0.31	6170	inactive
PPP1R14C (protein phosphatase 1 regulatory inhibitor subunit 14C)	0.64	5801	inactive
UGT1A10 (UDP glucuronosyltransferase family 1 member A10)	-1.77	6030	inactive
RELT (RELT TNF receptor)	-2.93	6012	active
CHRFAM7A (CHRNA7 (exons 5-10) and FAM7A (exons A-E) fusion)	-0.73	4873	inactive
UCK2 (uridine-cytidine kinase 2)	-1.17	3623	inactive
SPAG6 (sperm associated antigen 6)	0.32	5260	inactive
MLF2 (myeloid leukemia factor 2)	-1.03	4385	inactive
RPS6KA5 (ribosomal protein S6 kinase A5)	-1.84	2912	inactive
ANKS6 (ankyrin repeat and sterile alpha motif domain containing 6)	0.84	7136	inactive
KITLG (KIT ligand)	0.44	5570	inactive
STK26 (serine/threonine kinase 26)	-0.52	3911	inactive
PTH (parathyroid hormone)	1.25	5896	inactive
CIAO1 (cytosolic iron-sulfur assembly component 1)	0.55	5861	inactive
ARHGAP22 (Rho GTPase activating protein 22)	-0.32	6812	inactive
SOX4 (SRY-box transcription factor 4)	-0.72	5928	inactive
ZNHIT2 (zinc finger HIT-type containing 2)	1.56	4919	inactive
RNF212 (ring finger protein 212)	-0.04	6249	inactive
RAD51AP1 (RAD51 associated protein 1)	-1.68	5424	inactive
OR14A16 (olfactory receptor family 14 subfamily A member 16)	-2.15	4452	active
GORASP1 (golgi reassembly stacking protein 1)	1.02	6180	inactive
ZFYVE1 (zinc finger FYVE-type containing 1)	-1.38	5062	inactive
VENTX (VENT homeobox)	1.02	6164	inactive
GLUD2 (glutamate dehydrogenase 2)	-0.28	5866	inactive
PLG (plasminogen)	0.65	5337	inactive
EPAS1 (endothelial PAS domain protein 1)	0.76	6354	inactive
TIMP3 (TIMP metallopeptidase inhibitor 3)	0.34	5629	inactive
COL9A3 (collagen type IX alpha 3 chain)	0.18	4668	inactive
SMYD1 (SET and MYND domain containing 1)	0.57	5368	inactive
ZNF618 (zinc finger protein 618)	-0.67	3248	inactive
IRX2 (iroquois homeobox 2)	-0.07	4914	inactive
DGCR2 (DiGeorge syndrome critical region gene 2)	-0.12	5542	inactive
TAS2R20 (taste 2 receptor member 20)	-0.48	4850	inactive
KRT74 (keratin 74)	-0.08	5948	inactive
RPRML (reprimo like)	-0.52	5045	inactive
HSD17B1 (hydroxysteroid 17-beta dehydrogenase 1)	0.96	7629	inactive
XRN1 (5'-3' exoribonuclease 1)	0.83	6210	inactive
PDE3B (phosphodiesterase 3B)	-0.6	5728	inactive
GPR26 (G protein-coupled receptor 26)	0	5253	inactive
TXNDC11 (thioredoxin domain containing 11)	0.08	5812	inactive
DDA1 (DET1 and DDB1 associated 1)	-1.09	5593	inactive
MYOT (myotilin)	0.3	5728	inactive
SPI1 (Spi-1 proto-oncogene)	-0.06	5995	inactive
CPT2 (carnitine palmitoyltransferase 2)	-1.01	4042	inactive
MPPED2 (metallophosphoesterase domain containing 2)	0.9	4048	inactive
ENTR1 (endosome associated trafficking regulator 1)	0.62	6670	inactive
SGF29 (SAGA complex associated factor 29)	-0.33	5675	inactive

Part of the list above, set out differently:
{"Target gene":"ARHGAP22 (Rho GTPase activating protein 22)","migration robust z-score":-0.32,"nuclei per well, duplicate mean":6812,"call":"inactive"}
{"Target gene":"SOX4 (SRY-box transcription factor 4)","migration robust z-score":-0.72,"nuclei per well, duplicate mean":5928,"call":"inactive"}
{"Target gene":"ZNHIT2 (zinc finger HIT-type containing 2)","migration robust z-score":1.56,"nuclei per well, duplicate mean":4919,"call":"inactive"}
{"Target gene":"RNF212 (ring finger protein 212)","migration robust z-score":-0.04,"nuclei per well, duplicate mean":6249,"call":"inactive"}
{"Target gene":"RAD51AP1 (RAD51 associated protein 1)","migration robust z-score":-1.68,"nuclei per well, duplicate mean":5424,"call":"inactive"}
{"Target gene":"OR14A16 (olfactory receptor family 14 subfamily A member 16)","migration robust z-score":-2.15,"nuclei per well, duplicate mean":4452,"call":"active"}
